No constants are given. Whether binding was seen depends on the method and setting. Some results given as binding are weak or reduced against the parent protein; the word gives no strength.
Target: fibronectin endogenously produced by human cells (LX-2 hepatic stellate cells, Detroit 551 fibroblasts) (human) (UniProt P02751)
Experiment: binding of ILT3ECD-Fc to LX-2 cells, wild type against fibronectin knock-out

Sequences of proteins named here, by UniProt entry; tags and fusion partners are left off. A change or cut given only in a name is not applied to a line headed by its entry.
UniProt P02751: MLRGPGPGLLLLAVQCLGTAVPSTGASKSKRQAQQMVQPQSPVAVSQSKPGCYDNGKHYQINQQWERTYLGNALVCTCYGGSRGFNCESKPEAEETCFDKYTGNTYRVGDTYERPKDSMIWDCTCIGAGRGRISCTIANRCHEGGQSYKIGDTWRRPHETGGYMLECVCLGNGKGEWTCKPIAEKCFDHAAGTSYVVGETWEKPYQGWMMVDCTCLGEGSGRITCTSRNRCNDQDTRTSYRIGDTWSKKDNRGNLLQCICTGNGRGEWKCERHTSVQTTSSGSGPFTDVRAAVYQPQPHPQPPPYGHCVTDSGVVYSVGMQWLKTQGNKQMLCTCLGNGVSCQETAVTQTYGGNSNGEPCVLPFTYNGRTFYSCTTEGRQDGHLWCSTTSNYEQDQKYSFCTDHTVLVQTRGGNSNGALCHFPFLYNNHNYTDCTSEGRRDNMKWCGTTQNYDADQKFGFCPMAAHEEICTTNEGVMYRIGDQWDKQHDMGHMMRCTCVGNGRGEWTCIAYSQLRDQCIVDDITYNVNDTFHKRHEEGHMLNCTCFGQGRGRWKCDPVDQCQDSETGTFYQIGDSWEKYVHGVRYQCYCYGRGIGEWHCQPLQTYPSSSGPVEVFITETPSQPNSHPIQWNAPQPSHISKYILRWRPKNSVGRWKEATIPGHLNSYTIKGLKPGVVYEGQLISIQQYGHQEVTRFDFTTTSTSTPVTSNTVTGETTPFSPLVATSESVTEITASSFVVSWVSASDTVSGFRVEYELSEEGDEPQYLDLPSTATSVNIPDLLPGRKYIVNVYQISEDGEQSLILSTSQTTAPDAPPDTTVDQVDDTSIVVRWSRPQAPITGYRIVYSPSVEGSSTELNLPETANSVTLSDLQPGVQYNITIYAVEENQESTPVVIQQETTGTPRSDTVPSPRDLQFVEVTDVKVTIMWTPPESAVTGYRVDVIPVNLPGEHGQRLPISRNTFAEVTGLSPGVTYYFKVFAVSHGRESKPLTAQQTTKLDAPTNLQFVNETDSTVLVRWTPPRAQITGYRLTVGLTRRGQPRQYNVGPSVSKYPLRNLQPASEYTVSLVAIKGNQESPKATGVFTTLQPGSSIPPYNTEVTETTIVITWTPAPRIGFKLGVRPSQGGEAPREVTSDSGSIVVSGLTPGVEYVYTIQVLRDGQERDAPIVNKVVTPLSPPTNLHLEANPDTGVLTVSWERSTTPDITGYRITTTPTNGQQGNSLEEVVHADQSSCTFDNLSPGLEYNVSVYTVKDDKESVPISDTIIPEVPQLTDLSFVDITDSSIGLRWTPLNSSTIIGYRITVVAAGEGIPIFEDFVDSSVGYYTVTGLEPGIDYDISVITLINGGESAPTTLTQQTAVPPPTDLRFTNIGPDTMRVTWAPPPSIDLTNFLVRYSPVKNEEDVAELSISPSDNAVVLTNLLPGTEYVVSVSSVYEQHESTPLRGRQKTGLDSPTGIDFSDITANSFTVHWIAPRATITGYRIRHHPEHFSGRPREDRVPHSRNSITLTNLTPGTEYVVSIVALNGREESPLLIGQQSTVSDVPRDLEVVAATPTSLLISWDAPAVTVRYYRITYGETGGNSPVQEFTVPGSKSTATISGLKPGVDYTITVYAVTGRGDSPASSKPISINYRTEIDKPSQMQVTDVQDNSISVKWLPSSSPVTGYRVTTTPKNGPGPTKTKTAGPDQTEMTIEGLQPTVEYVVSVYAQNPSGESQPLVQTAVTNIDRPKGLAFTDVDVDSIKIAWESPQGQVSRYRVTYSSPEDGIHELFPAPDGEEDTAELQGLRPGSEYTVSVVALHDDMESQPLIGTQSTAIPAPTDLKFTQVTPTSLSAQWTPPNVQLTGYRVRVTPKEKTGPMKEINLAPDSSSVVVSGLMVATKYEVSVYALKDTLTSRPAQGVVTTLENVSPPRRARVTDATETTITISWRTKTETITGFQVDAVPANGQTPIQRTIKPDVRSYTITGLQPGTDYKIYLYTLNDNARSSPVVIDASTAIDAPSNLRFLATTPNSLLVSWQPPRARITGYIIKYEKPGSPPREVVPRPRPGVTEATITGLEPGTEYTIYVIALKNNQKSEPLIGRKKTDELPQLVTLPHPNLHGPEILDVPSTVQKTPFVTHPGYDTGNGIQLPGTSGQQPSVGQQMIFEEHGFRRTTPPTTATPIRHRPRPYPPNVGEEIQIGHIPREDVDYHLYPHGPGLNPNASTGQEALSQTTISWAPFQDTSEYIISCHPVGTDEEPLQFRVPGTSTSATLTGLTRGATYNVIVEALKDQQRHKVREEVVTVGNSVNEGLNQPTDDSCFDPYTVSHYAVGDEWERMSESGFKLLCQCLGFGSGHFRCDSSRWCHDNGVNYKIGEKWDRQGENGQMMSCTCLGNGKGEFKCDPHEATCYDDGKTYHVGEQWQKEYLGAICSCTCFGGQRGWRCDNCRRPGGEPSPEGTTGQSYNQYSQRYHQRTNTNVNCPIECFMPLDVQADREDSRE
UniProt Q8NHJ6: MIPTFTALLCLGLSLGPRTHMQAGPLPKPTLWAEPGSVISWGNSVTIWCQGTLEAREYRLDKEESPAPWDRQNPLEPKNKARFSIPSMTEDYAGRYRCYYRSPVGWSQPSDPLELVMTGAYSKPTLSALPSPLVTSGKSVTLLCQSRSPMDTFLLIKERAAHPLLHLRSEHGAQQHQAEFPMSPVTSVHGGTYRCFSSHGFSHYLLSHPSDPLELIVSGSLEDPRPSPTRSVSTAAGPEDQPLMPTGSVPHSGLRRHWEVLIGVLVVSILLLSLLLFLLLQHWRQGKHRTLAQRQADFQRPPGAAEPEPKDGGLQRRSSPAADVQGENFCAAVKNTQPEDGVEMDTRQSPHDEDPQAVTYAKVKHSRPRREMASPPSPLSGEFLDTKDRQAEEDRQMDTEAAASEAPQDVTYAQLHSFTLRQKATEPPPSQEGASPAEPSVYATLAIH

binding: binds
Substance: ILT3ECD-Fc (human ILT3 extracellular domain fused to an immunoglobulin Fc region) (from UniProt Q8NHJ6 22-259) (Fc fusion)

Source: patent US20240043533A1
